Assay results published in paper PMC7545832.
Results are given in words; binding and its absence hold for the method and conditions named. Binding seen in cells or lysates may run through a third protein. Where a sequence is shown, tags or fusion partners need not be part of it.

Protein sequences, listed by entry. Tags and fused reporters are not part of them.
UniProt Q13485: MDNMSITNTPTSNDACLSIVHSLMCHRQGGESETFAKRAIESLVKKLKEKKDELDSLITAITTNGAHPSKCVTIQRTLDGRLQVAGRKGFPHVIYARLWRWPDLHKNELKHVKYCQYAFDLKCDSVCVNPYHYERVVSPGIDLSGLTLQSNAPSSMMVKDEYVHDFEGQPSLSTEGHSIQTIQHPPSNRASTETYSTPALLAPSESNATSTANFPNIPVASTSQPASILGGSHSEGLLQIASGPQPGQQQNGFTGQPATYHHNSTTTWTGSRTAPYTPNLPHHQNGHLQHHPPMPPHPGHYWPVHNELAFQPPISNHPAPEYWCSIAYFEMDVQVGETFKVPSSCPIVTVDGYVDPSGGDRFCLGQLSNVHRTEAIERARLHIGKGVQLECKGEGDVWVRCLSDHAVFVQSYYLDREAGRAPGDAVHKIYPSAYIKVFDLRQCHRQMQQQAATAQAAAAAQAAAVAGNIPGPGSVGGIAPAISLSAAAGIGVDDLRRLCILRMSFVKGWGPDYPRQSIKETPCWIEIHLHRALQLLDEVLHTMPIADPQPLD

Target: T1, USP1-HA (UniProt O94782)
T1 sequence: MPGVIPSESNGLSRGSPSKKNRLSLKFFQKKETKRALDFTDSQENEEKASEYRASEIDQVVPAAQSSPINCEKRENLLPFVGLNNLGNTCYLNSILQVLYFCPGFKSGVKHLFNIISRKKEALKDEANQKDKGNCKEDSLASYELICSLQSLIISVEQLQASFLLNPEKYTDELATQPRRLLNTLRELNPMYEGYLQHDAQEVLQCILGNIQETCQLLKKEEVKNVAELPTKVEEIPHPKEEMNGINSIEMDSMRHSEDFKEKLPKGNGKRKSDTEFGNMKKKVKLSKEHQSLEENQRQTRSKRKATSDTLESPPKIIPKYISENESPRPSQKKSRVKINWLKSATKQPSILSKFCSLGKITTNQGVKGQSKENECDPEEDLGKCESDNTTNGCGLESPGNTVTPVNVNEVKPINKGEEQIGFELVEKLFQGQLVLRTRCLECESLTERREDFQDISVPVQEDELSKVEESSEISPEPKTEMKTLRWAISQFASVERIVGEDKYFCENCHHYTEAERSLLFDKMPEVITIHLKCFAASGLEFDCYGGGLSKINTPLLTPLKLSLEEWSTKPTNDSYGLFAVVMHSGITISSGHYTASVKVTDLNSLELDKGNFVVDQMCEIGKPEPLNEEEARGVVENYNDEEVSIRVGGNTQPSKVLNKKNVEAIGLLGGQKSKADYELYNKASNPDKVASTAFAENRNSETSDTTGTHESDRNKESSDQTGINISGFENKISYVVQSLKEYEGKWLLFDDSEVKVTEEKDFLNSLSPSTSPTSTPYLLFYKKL
Test: co-IP; Co-IP in 293T cells: USP1-HA with TBLR1-Flag (reciprocal, tag antibodies) or with RAC1, SMAD4, BMP4 or PPP2R1

- binding: no binding
Substance: SMAD4 (from UniProt Q13485 1-552)
